Experiment [1] has as its target T1, RNF144A (Ring Finger protein 144A) (human (endogenous in PN12 and MES23 glioma stem cells)) (UniProt P50876).
T1 sequence: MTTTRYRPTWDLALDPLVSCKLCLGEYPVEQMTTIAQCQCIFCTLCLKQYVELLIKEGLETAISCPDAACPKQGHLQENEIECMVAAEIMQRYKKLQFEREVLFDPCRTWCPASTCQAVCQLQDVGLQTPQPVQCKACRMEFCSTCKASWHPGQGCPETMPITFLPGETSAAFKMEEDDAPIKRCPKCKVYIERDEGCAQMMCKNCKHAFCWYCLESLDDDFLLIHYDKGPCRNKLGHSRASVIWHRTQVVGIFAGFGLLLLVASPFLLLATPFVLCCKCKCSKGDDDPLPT
Put plainly: co-IP; Pierce Crosslink magnetic IP and Co-IP kit; lysates of PN12 and MES23 glioma stem cells, untransfected or transfected with the indicated plasmids; IP with anti-ZDHHC18, anti-ZDHHC23 or anti-RNF144A antibodies, western blot. For orientation: In western blotting, separated proteins are transferred to a membrane and probed.

The chains behind the UniProt entries cited, without tags or fusion partners.
UniProt P35226: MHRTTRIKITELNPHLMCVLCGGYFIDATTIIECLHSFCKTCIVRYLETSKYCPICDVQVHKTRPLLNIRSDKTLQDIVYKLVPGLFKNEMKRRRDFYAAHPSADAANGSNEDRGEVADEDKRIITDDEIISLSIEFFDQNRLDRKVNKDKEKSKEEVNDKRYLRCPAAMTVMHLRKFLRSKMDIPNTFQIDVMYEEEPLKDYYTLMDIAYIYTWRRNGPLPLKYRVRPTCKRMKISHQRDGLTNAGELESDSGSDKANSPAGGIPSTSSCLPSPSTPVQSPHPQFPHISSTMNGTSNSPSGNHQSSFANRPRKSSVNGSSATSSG

For experiment [2], the target named is T1, RNF144A (Ring Finger protein 144A) (human (endogenous in PN12 and MES23 glioma stem cells)). The experiment is described as above. The source holds these as a separate data set.
For experiment [3], the target named is T2, Myc-RNF144A (UniProt P50876).
T2 sequence: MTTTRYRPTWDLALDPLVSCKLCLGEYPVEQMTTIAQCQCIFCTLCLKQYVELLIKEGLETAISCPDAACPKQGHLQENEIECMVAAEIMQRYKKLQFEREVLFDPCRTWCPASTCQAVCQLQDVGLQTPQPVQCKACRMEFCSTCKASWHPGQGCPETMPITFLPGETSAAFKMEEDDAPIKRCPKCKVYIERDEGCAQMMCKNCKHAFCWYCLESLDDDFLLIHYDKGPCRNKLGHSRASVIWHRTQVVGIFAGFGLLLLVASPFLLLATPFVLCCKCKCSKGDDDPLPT
Put plainly: co-IP; lysates of 293 T cells expressing FLAG-ZDHHC18, HA-ZDHHC23 and Myc-RNF144A; immunoprecipitation, then blots with anti-FLAG, anti-HA and anti-Myc antibodies.

In experiment [4] the target is T3, ZDHHC18 (human (endogenous in PN12 and MES23 glioma stem cells)) (UniProt Q9NUE0).
T3 sequence: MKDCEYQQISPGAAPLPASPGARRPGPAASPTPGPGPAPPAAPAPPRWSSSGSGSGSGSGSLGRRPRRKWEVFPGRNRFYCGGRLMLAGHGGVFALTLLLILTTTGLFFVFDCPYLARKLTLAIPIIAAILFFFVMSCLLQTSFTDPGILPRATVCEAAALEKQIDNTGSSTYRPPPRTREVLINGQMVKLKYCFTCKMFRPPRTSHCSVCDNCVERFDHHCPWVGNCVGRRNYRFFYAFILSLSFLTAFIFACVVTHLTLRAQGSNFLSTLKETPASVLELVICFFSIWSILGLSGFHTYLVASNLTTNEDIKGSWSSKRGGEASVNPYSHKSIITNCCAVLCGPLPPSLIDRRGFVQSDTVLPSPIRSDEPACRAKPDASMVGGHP
Put plainly: co-IP; Pierce Crosslink magnetic IP and Co-IP kit; lysates of PN12 and MES23 glioma stem cells, untransfected or transfected with the indicated plasmids; IP with anti-ZDHHC18, anti-ZDHHC23 or anti-RNF144A antibodies, western blot.

Experiment [5] addresses T4, ZDHHC23 (human (endogenous in PN12 and MES23 glioma stem cells)) (UniProt Q8IYP9).
T4 sequence: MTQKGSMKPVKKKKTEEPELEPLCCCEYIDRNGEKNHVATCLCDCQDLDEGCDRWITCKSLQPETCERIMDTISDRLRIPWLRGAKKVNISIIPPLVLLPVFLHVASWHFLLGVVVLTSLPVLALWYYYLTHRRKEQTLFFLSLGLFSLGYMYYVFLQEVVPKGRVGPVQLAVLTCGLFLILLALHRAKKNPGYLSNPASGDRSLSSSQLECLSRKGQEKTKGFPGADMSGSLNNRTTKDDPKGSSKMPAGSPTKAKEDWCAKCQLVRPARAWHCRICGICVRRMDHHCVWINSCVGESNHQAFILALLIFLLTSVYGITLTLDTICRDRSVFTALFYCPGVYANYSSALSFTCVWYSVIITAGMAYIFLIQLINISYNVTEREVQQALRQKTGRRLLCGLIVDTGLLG
Described as above.

Where two headings read alike, the source gives them in different places. These are yes or no findings as the source states them, for the method shown. In cells and extracts the contact can be indirect. Some entries that bind do so weakly or less than the wild type. For some assays here: Tags and fused reporters may be left off the sequences shown.

Regarding “BMI1 polycomb ring finger oncogene (BMI1) (from UniProt P35226 1-326)”, the binding entry in experiment [1] was “binds”.

B1: ZDHHC18, over-expressed (LentiORF) (protein, UniProt Q9NUE0 1-388)
chain: MKDCEYQQISPGAAPLPASPGARRPGPAASPTPGPGPAPPAAPAPPRWSSSGSGSGSGSGSLGRRPRRKWEVFPGRNRFYCGGRLMLAGHGGVFALTLLLILTTTGLFFVFDCPYLARKLTLAIPIIAAILFFFVMSCLLQTSFTDPGILPRATVCEAAALEKQIDNTGSSTYRPPPRTREVLINGQMVKLKYCFTCKMFRPPRTSHCSVCDNCVERFDHHCPWVGNCVGRRNYRFFYAFILSLSFLTAFIFACVVTHLTLRAQGSNFLSTLKETPASVLELVICFFSIWSILGLSGFHTYLVASNLTTNEDIKGSWSSKRGGEASVNPYSHKSIITNCCAVLCGPLPPSLIDRRGFVQSDTVLPSPIRSDEPACRAKPDASMVGGHP
Regarding B1, the binding result in experiment [2] was “binds”.

B2: FLAG-ZDHHC18 (protein, UniProt Q9NUE0 1-388)
chain: MKDCEYQQISPGAAPLPASPGARRPGPAASPTPGPGPAPPAAPAPPRWSSSGSGSGSGSGSLGRRPRRKWEVFPGRNRFYCGGRLMLAGHGGVFALTLLLILTTTGLFFVFDCPYLARKLTLAIPIIAAILFFFVMSCLLQTSFTDPGILPRATVCEAAALEKQIDNTGSSTYRPPPRTREVLINGQMVKLKYCFTCKMFRPPRTSHCSVCDNCVERFDHHCPWVGNCVGRRNYRFFYAFILSLSFLTAFIFACVVTHLTLRAQGSNFLSTLKETPASVLELVICFFSIWSILGLSGFHTYLVASNLTTNEDIKGSWSSKRGGEASVNPYSHKSIITNCCAVLCGPLPPSLIDRRGFVQSDTVLPSPIRSDEPACRAKPDASMVGGHP
Take B2: the binding result in experiment [3] is “binds”.

B3: RNF144A (Ring Finger protein 144A) (protein, UniProt P50876 1-292)
chain: MTTTRYRPTWDLALDPLVSCKLCLGEYPVEQMTTIAQCQCIFCTLCLKQYVELLIKEGLETAISCPDAACPKQGHLQENEIECMVAAEIMQRYKKLQFEREVLFDPCRTWCPASTCQAVCQLQDVGLQTPQPVQCKACRMEFCSTCKASWHPGQGCPETMPITFLPGETSAAFKMEEDDAPIKRCPKCKVYIERDEGCAQMMCKNCKHAFCWYCLESLDDDFLLIHYDKGPCRNKLGHSRASVIWHRTQVVGIFAGFGLLLLVASPFLLLATPFVLCCKCKCSKGDDDPLPT
On to B3, for which the binding result in experiment [4] and in experiment [5] was “binds” each time.

B4: ZDHHC23 (protein, UniProt Q8IYP9 1-409)
chain: MTQKGSMKPVKKKKTEEPELEPLCCCEYIDRNGEKNHVATCLCDCQDLDEGCDRWITCKSLQPETCERIMDTISDRLRIPWLRGAKKVNISIIPPLVLLPVFLHVASWHFLLGVVVLTSLPVLALWYYYLTHRRKEQTLFFLSLGLFSLGYMYYVFLQEVVPKGRVGPVQLAVLTCGLFLILLALHRAKKNPGYLSNPASGDRSLSSSQLECLSRKGQEKTKGFPGADMSGSLNNRTTKDDPKGSSKMPAGSPTKAKEDWCAKCQLVRPARAWHCRICGICVRRMDHHCVWINSCVGESNHQAFILALLIFLLTSVYGITLTLDTICRDRSVFTALFYCPGVYANYSSALSFTCVWYSVIITAGMAYIFLIQLINISYNVTEREVQQALRQKTGRRLLCGLIVDTGLLG
B4: the binding entry in experiment [4] was “binds”.

B5: HA-ZDHHC23 (protein, UniProt Q8IYP9 1-409)
chain: MTQKGSMKPVKKKKTEEPELEPLCCCEYIDRNGEKNHVATCLCDCQDLDEGCDRWITCKSLQPETCERIMDTISDRLRIPWLRGAKKVNISIIPPLVLLPVFLHVASWHFLLGVVVLTSLPVLALWYYYLTHRRKEQTLFFLSLGLFSLGYMYYVFLQEVVPKGRVGPVQLAVLTCGLFLILLALHRAKKNPGYLSNPASGDRSLSSSQLECLSRKGQEKTKGFPGADMSGSLNNRTTKDDPKGSSKMPAGSPTKAKEDWCAKCQLVRPARAWHCRICGICVRRMDHHCVWINSCVGESNHQAFILALLIFLLTSVYGITLTLDTICRDRSVFTALFYCPGVYANYSSALSFTCVWYSVIITAGMAYIFLIQLINISYNVTEREVQQALRQKTGRRLLCGLIVDTGLLG
B5: the binding entry in experiment [3] is recorded as “binds”.

B6: ZDHHC23, over-expressed (LentiORF) (protein, UniProt Q8IYP9 1-409)
chain: MTQKGSMKPVKKKKTEEPELEPLCCCEYIDRNGEKNHVATCLCDCQDLDEGCDRWITCKSLQPETCERIMDTISDRLRIPWLRGAKKVNISIIPPLVLLPVFLHVASWHFLLGVVVLTSLPVLALWYYYLTHRRKEQTLFFLSLGLFSLGYMYYVFLQEVVPKGRVGPVQLAVLTCGLFLILLALHRAKKNPGYLSNPASGDRSLSSSQLECLSRKGQEKTKGFPGADMSGSLNNRTTKDDPKGSSKMPAGSPTKAKEDWCAKCQLVRPARAWHCRICGICVRRMDHHCVWINSCVGESNHQAFILALLIFLLTSVYGITLTLDTICRDRSVFTALFYCPGVYANYSSALSFTCVWYSVIITAGMAYIFLIQLINISYNVTEREVQQALRQKTGRRLLCGLIVDTGLLG
In the case of B6, in experiment [2], the binding result was “binds”.

Values taken from PMC6339410.
